According to ChEMBL document CHEMBL3868595, “Plazomicin is effective in a non-human primate pneumonic plague model” (Bioorg Med Chem, 2016):
The source gives many values for each of these; only a part stands here.

Legend:
Yersinia pestis [1] = assay: Antibacterial activity against Yersinia pestis Colorado 92 infected in African green monkey B6988 model assessed as bacterial burden in tracheobronchial lymph nodes at 6.25 mg/kg, iv administered within 6 hrs post onset of sustained fever as 30 mins infusion for 5 days (reference value: 7.7 10^9CFU/g); format: functional, CO92, Lymph node
Yersinia pestis [2] = assay: Antibacterial activity against Yersinia pestis Colorado 92 infected in African green monkey C2149 model assessed as bacterial burden in lung at 6.25 mg/kg, iv administered within 6 hrs post onset of sustained fever as 30 mins infusion for 5 days (reference value: 7.7 10^8CFU/g); format: functional, CO92
Yersinia pestis [3] = assay: Antibacterial activity against Yersinia pestis Colorado 92 infected in African green monkey B6415 model assessed as bacterial burden in heart at 25 mg/kg, iv administered within 6 hrs post onset of sustained fever as 30 mins infusion for 5 days (reference value: 2.6 10^7CFU/g); format: functional, CO92
Yersinia pestis [4] = assay: Antibacterial activity against Yersinia pestis Colorado 92 infected in African green monkey B6415 model assessed as bacterial burden in tracheobronchial lymph nodes at 25 mg/kg, iv administered within 6 hrs post onset of sustained fever as 30 mins infusion for 5 days (reference value: 7.7 10^9CFU/g); format: functional, CO92, Lymph node
Yersinia pestis [5] = assay: Antibacterial activity against Yersinia pestis Colorado 92 infected in African green monkey B6672 model assessed as bacterial burden in brain at 12.5 mg/kg, iv administered within 6 hrs post onset of sustained fever as 30 mins infusion for 5 days (reference value: 1.9 10^6CFU/g); format: functional, CO92
Yersinia pestis [6] = assay: Antibacterial activity against Yersinia pestis Colorado 92 infected in African green monkey C2083 model assessed as bacterial burden in lung at 12.5 mg/kg, iv administered within 6 hrs post onset of sustained fever as 30 mins infusion for 5 days (reference value: 7.7 10^8CFU/g); format: functional, CO92
Yersinia pestis [7] = assay: Antibacterial activity against Yersinia pestis Colorado 92 infected in African green monkey B6872 model assessed as bacterial burden in heart at 25 mg/kg, iv administered within 6 hrs post onset of sustained fever as 30 mins infusion for 5 days (reference value: 2.6 10^7CFU/g); format: functional, organism-based; conditions: CO92
Yersinia pestis [8] = assay: Antibacterial activity against Yersinia pestis Colorado 92 infected in African green monkey B6873 model assessed as bacterial burden in liver at 12.5 mg/kg, iv administered within 6 hrs post onset of sustained fever as 30 mins infusion for 5 days (reference value: 5.2 10^8CFU/g); format: functional, organism-based; conditions: CO92
Yersinia pestis [9] = assay: Antibacterial activity against Yersinia pestis Colorado 92 infected in African green monkey B6127 model assessed as bacterial burden in heart at 25 mg/kg, iv administered within 6 hrs post onset of sustained fever as 30 mins infusion for 10 days (reference value: 2.6 10^7CFU/g); format: functional, CO92
Yersinia pestis [10] = assay: Antibacterial activity against Yersinia pestis Colorado 92 infected in African green monkey B6672 model assessed as bacterial burden in spleen at 12.5 mg/kg, iv administered within 6 hrs post onset of sustained fever as 30 mins infusion for 5 days (reference value: 1.6 10^9CFU/g); format: functional, CO92
Yersinia pestis [11] = assay: Antibacterial activity against Yersinia pestis Colorado 92 infected in African green monkey B6861 model assessed as bacterial burden in lung at 6.25 mg/kg, iv administered within 6 hrs post onset of sustained fever as 30 mins infusion for 5 days (reference value: 7.7 10^8CFU/g); format: functional, CO92
Yersinia pestis [12] = assay: Antibacterial activity against Yersinia pestis Colorado 92 infected in African green monkey B6960 model assessed as bacterial burden in lung at 6.25 mg/kg, iv administered within 6 hrs post onset of sustained fever as 30 mins infusion for 5 days (reference value: 7.7 10^8CFU/g); format: functional, CO92
Yersinia pestis [13] = assay: Antibacterial activity against Yersinia pestis Colorado 92 infected in African green monkey B6469 model assessed as bacterial burden in spleen at 25 mg/kg, iv administered within 6 hrs post onset of sustained fever as 30 mins infusion for 5 days (reference value: 1.6 10^9CFU/g); format: functional, CO92
Yersinia pestis [14] = assay: Antibacterial activity against Yersinia pestis Colorado 92 infected in African green monkey B6127 model assessed as bacterial burden in kidney at 25 mg/kg, iv administered within 6 hrs post onset of sustained fever as 30 mins infusion for 10 days (reference value: 7.1 10^7CFU/g); format: functional, organism-based; conditions: CO92
Yersinia pestis [15] = assay: Antibacterial activity against Yersinia pestis Colorado 92 infected in African green monkey B6415 model assessed as bacterial burden in kidney at 25 mg/kg, iv administered within 6 hrs post onset of sustained fever as 30 mins infusion for 5 days (reference value: 7.1 10^7CFU/g); format: functional, CO92
Yersinia pestis [16] = assay: Antibacterial activity against Yersinia pestis Colorado 92 infected in African green monkey B6783 model assessed as bacterial burden in blood at 12.5 mg/kg, iv administered within 6 hrs post onset of sustained fever as 30 mins infusion for 5 days (reference value: 1.2 10^7CFU/ml); format: functional, CO92
Yersinia pestis [17] = assay: Antibacterial activity against Yersinia pestis Colorado 92 infected in African green monkey B6960 model assessed as bacterial burden in brain at 6.25 mg/kg, iv administered within 6 hrs post onset of sustained fever as 30 mins infusion for 5 days (reference value: 1.9 10^6CFU/g); format: functional, organism-based; conditions: CO92
Yersinia pestis [18] = assay: Antibacterial activity against Yersinia pestis Colorado 92 infected in African green monkey B6783 model assessed as bacterial burden in heart at 12.5 mg/kg, iv administered within 6 hrs post onset of sustained fever as 30 mins infusion for 5 days (reference value: 2.6 10^7CFU/g); format: functional, CO92

CN[C@@H]1[C@@H](O)[C@@H](O[C@@H]2[C@@H](O)[C@H](O[C@H]3OC(CNCCO)=CC[C@H]3N)[C@@H](N)C[C@H]2NC(=O)[C@@H](O)CCN)OC[C@]1(C)O [PLAZOMICIN]
Activity (Yersinia pestis [1]): 6.6 ×10⁶ CFU/g | Activity (Yersinia pestis [2]): 1 ×10⁹ CFU/g | Activity (Yersinia pestis [3]): 62 CFU/g | Activity (Yersinia pestis [4]): 7.1 ×10⁷ CFU/g | Activity (Yersinia pestis [5]): 23 CFU/g | Activity (Yersinia pestis [6]): 3.7 ×10⁶ CFU/g | Activity (Yersinia pestis [7]): Below limit of detection | Activity (Yersinia pestis [8]): Below limit of detection | Activity (Yersinia pestis [9]): 94 CFU/g | Activity (Yersinia pestis [10]): 25 CFU/g | Activity (Yersinia pestis [11]): 1.2 ×10⁸ CFU/g | Activity (Yersinia pestis [12]): 3 ×10⁹ CFU/g | Activity (Yersinia pestis [13]): 46 CFU/g | Activity (Yersinia pestis [14]): Below limit of detection | Activity (Yersinia pestis [15]): 15 CFU/g | Activity (Yersinia pestis [16]): 27 CFU/ml | Activity (Yersinia pestis [17]): Below limit of detection | Activity (Yersinia pestis [18]): 80 CFU/g
